{"source": "PubChem BioAssay AID248", "about": "(DTP/NCI, 2004)", "tested_on": "L1210 leukemia ip in BDF1 mice, survival T/C", "assay": "NCI In Vivo Anticancer Drug Screen. Data for tumor model L1210 Leukemia (intraperitoneal) in B6D2F1 (BDF1) mice", "details": "T/C endpoint: mean survival time, higher T/C = longer survival", "key": {"[1]": {"details": "dose: 160.0 mg/kg/injection, schedule: Q01DX001 (ip), vehicle: saline"}}, "note": "The list does not hold the whole screen: it is rich in T/C values a quarter to a half above the control, in often repeated tests (any T/C) and in doses without a T/C. Further doses and runs are listed elsewhere. T/C gives the treated animals as a percentage of the vehicle group. Some entries give survivors of the animals treated and no T/C: the source holds a T/C of zero for them, seemingly a mark for toxic or unscored doses. Some doses without a T/C left all or most animals alive at the check, yet need not have been tolerated: the source hardly ever lists a survival T/C far under the control, and the zero likely stands for such cases as well. Counts of survivors are from the toxicity check (mostly the fifth day) where no day follows; animals may have died later. Schedules are NCI's codes, taken here to give the interval after Q, in days (D) or hours (H), and the number of doses after X. Some schedule codes hold Z or #, which are not explained here. Some entries were tested several times; their values stand side by side, smallest first. Where survival is the endpoint, the PubChem record calls one and a half times the control and up active, and a quarter to a half above the control has no call in these data; cut-offs in other NCI protocols can differ. Some T/C values carry the count of animals alive at the toxicity check (mostly the fifth day); where none is given, no animal had died by that day. Additions like (4×) stand for listed records that agree."}
{"smiles": "CC[C@](O)(C(=O)O)c1cc2n(c(=O)c1CO)Cc1cc3ccccc3nc1-2", "values": [{"measurement": "survivor count", "setting": "dose: 40.0 mg/kg/injection, schedule: Q04DX003 (oral), vehicle: saline", "result": "3 of 6"}, {"measurement": "T/C", "setting": "dose: 40.0 mg/kg/injection, schedule: Q## X001 (ip), vehicle: saline", "result": "132 and 136 % of control [5 of 6 alive]"}, {"measurement": "T/C", "setting": "dose: 40.0 mg/kg/injection, schedule: Q## X002 (ip), vehicle: saline", "result": "143 % of control [9 of 10 alive]"}, {"measurement": "survivor count", "setting": "dose: 40.0 mg/kg/injection, schedule: Q## X002 (oral), vehicle: saline", "result": "1 of 10"}, {"measurement": "T/C", "setting": "dose: 40.0 mg/kg/injection, schedule: Q## X003 (ip), vehicle: saline, evaluated on day 30", "result": "189 % of control"}, {"measurement": "T/C", "setting": "dose: 40.0 mg/kg/injection, schedule: Q## X003 (ip), vehicle: saline, evaluated on day 40", "result": "205 and 215 % of control (2×)"}, {"measurement": "survivor count", "setting": "dose: 40.0 mg/kg/injection, schedule: Q## X003 (oral), vehicle: saline", "result": "7 of 10"}, {"measurement": "survivor count", "setting": "dose: 40.0 mg/kg/injection, schedule: Q## X003 (oral), vehicle: water", "result": "5 of 10"}, {"measurement": "survivor count", "setting": "dose: 40.0 mg/kg/injection, schedule: Q## X008 (ip), vehicle: saline", "result": "6 of 10"}, {"measurement": "survivor count", "setting": "dose: 40.0 mg/kg/injection, schedule: Q## X008 (oral), vehicle: water", "result": "2 of 10"}, {"measurement": "survivor count", "setting": "dose: 40.0 mg/kg/injection, schedule: Q## X024 (ip), vehicle: saline", "result": "1 of 10"}, {"measurement": "survivor count", "setting": "dose: 40.0 mg/kg/injection, schedule: Q## X024 (oral), vehicle: water", "result": "0 of 10"}, {"measurement": "survivor count", "setting": "dose: 45.0 mg/kg/injection, schedule: Q03DX Z (ip), vehicle: saline", "result": "6 of 6"}, {"measurement": "T/C", "setting": "dose: 50.0 mg/kg/injection, schedule: Q01DX001 (ip), vehicle: saline", "result": "131 % of control"}, {"measurement": "T/C", "setting": "dose: 54.0 mg/kg/injection, schedule: Q01DX001 (ip), vehicle: saline", "result": "142 % of control"}, {"measurement": "T/C", "setting": "dose: 60.0 mg/kg/injection, schedule: Q## X001 (ip), vehicle: saline", "result": "147 % of control [4 of 6 alive]"}, {"measurement": "survivor count", "setting": "dose: 70.0 mg/kg/injection, schedule: Q03DX Z (ip), vehicle: saline", "result": "4 of 6"}, {"measurement": "T/C", "setting": "dose: 75.0 mg/kg/injection, schedule: Q01DX001 (ip), vehicle: saline, evaluated on day 5", "result": "130, 134, 142 % of control"}, {"measurement": "T/C", "setting": "dose: 75.0 mg/kg/injection, schedule: Q01DX001 (ip), vehicle: saline, evaluated on day 45", "result": "130 [7 of 8 alive] and 142 % of control"}, {"measurement": "survivor count", "setting": "dose: 75.0 mg/kg/injection, schedule: Q01DX001 (ip), vehicle: saline", "result": "6 of 10"}, {"measurement": "T/C", "setting": "dose: 80.0 mg/kg/injection, schedule: Q01DX001 (ip), vehicle: saline, evaluated on day 30", "result": "141, 145 [5 of 6 alive], 155, 164 % of control"}, {"measurement": "T/C", "setting": "dose: 80.0 mg/kg/injection, schedule: Q01DX001 (ip), vehicle: saline, evaluated on day 40", "result": "155 and 160 % of control"}, {"measurement": "survivor count", "setting": "dose: 80.0 mg/kg/injection, schedule: Q01DX001 (ip), vehicle: saline", "result": "4 of 10"}, {"measurement": "survivor count", "setting": "dose: 80.0 mg/kg/injection, schedule: Q01DX001 (oral), vehicle: saline", "result": "1 of 10"}, {"measurement": "survivor count", "setting": "dose: 80.0 mg/kg/injection, schedule: Q01DX001 (oral), vehicle: water", "result": "5 of 10"}, {"measurement": "survivor count", "setting": "dose: 80.0 mg/kg/injection, schedule: Q04DX003 (ip), vehicle: clinical formulation", "result": "8 of 10"}, {"measurement": "T/C", "setting": "dose: 80.0 mg/kg/injection, schedule: Q04DX003 (ip), vehicle: saline", "result": "129 % of control"}, {"measurement": "survivor count", "setting": "dose: 80.0 mg/kg/injection, schedule: Q04DX003 (ip), vehicle: water", "result": "8 of 10"}, {"measurement": "survivor count", "setting": "dose: 80.0 mg/kg/injection, schedule: Q04DX003 (oral), vehicle: saline", "result": "2 of 6"}, {"measurement": "survivor count", "setting": "dose: 80.0 mg/kg/injection, schedule: Q## X002 (ip), vehicle: saline", "result": "6 of 10"}, {"measurement": "survivor count", "setting": "dose: 80.0 mg/kg/injection, schedule: Q## X002 (oral), vehicle: saline", "result": "1 of 10"}, {"measurement": "survivor count", "setting": "dose: 80.0 mg/kg/injection, schedule: Q## X003 (ip), vehicle: saline", "result": "6 of 10"}, {"measurement": "survivor count", "setting": "dose: 80.0 mg/kg/injection, schedule: Q## X008 (ip), vehicle: saline", "result": "1 of 10"}, {"measurement": "survivor count", "setting": "dose: 80.0 mg/kg/injection, schedule: Q## X008 (oral), vehicle: water", "result": "2 of 10"}, {"measurement": "T/C", "setting": "dose: 100.0 mg/kg/injection, schedule: Q01DX001 (ip), vehicle: saline", "result": "128 % of control [5 of 6 alive]"}, {"measurement": "survivor count", "setting": "dose: 100.0 mg/kg/injection, schedule: Q04DX002 (ip), vehicle: saline", "result": "3 of 3"}, {"measurement": "survivor count", "setting": "dose: 100.0 mg/kg/injection, schedule: Q04DX003 (ip), vehicle: saline", "result": "4 of 6"}, {"measurement": "T/C", "setting": "dose: 150.0 mg/kg/injection, schedule: Q01DX001 (ip), vehicle: saline, evaluated on day 5", "result": "64, 125, 241 % of control"}, {"measurement": "T/C", "setting": "dose: 150.0 mg/kg/injection, schedule: Q01DX001 (ip), vehicle: saline, evaluated on day 45", "result": "125 % of control"}, {"measurement": "survivor count", "setting": "dose: 150.0 mg/kg/injection, schedule: Q01DX001 (ip), vehicle: saline", "result": "3 of 10 and 4 of 10"}, {"measurement": "T/C", "setting": "[1]", "result": "137 [9 of 10 alive] and 189 % of control [9 of 10 alive]"}, {"measurement": "survivor count", "setting": "[1]", "result": "0 of 10, 1 of 6, 3 of 6, 5 of 6"}, {"measurement": "survivor count", "setting": "dose: 160.0 mg/kg/injection, schedule: Q01DX001 (oral), vehicle: water", "result": "4 of 10"}, {"measurement": "survivor count", "setting": "dose: 160.0 mg/kg/injection, schedule: Q04DX003 (ip), vehicle: clinical formulation", "result": "3 of 10"}, {"measurement": "survivor count", "setting": "dose: 160.0 mg/kg/injection, schedule: Q04DX003 (ip), vehicle: saline", "result": "5 of 10"}, {"measurement": "survivor count", "setting": "dose: 160.0 mg/kg/injection, schedule: Q04DX003 (ip), vehicle: water", "result": "1 of 10"}]}
